The results in this text go back to article PMC5805371.

The chains behind the UniProt entries cited, without tags or fusion partners.
UniProt Q92973: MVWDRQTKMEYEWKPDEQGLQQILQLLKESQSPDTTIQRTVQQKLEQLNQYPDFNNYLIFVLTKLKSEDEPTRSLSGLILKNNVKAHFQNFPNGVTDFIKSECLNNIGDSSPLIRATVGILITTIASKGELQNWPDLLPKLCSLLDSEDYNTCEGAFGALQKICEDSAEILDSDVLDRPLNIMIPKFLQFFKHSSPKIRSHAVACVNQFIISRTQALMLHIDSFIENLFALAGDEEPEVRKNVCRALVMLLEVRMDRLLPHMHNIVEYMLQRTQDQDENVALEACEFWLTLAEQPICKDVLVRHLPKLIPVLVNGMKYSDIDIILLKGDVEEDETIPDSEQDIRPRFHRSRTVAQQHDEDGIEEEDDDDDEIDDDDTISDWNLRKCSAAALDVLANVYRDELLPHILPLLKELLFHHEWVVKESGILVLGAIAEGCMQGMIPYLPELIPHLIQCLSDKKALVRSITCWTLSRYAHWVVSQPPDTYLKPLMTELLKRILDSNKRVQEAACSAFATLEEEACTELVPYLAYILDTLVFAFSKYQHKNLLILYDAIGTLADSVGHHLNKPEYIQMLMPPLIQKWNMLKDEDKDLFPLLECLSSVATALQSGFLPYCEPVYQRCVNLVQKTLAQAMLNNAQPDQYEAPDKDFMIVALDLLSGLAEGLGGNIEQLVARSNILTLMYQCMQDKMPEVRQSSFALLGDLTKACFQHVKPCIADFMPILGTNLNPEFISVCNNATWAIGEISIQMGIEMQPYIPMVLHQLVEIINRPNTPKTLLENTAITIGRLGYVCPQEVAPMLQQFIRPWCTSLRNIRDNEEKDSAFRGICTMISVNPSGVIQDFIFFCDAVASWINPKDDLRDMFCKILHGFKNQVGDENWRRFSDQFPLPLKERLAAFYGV
UniProt O00327: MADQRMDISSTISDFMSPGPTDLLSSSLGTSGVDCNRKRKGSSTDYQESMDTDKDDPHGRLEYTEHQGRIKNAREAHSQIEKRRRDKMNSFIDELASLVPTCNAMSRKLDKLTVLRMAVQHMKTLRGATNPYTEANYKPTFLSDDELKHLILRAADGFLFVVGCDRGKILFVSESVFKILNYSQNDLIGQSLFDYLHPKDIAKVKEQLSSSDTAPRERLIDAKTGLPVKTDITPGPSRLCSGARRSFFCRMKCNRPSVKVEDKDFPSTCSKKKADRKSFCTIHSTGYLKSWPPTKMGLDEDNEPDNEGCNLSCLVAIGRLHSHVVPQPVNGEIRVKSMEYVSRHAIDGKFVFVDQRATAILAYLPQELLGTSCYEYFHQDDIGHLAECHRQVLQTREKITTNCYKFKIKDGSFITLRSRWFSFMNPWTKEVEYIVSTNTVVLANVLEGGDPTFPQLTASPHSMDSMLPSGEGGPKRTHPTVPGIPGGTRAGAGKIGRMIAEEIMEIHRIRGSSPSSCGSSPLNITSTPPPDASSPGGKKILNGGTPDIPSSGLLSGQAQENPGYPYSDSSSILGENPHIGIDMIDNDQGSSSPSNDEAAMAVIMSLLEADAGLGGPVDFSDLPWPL
UniProt O15534: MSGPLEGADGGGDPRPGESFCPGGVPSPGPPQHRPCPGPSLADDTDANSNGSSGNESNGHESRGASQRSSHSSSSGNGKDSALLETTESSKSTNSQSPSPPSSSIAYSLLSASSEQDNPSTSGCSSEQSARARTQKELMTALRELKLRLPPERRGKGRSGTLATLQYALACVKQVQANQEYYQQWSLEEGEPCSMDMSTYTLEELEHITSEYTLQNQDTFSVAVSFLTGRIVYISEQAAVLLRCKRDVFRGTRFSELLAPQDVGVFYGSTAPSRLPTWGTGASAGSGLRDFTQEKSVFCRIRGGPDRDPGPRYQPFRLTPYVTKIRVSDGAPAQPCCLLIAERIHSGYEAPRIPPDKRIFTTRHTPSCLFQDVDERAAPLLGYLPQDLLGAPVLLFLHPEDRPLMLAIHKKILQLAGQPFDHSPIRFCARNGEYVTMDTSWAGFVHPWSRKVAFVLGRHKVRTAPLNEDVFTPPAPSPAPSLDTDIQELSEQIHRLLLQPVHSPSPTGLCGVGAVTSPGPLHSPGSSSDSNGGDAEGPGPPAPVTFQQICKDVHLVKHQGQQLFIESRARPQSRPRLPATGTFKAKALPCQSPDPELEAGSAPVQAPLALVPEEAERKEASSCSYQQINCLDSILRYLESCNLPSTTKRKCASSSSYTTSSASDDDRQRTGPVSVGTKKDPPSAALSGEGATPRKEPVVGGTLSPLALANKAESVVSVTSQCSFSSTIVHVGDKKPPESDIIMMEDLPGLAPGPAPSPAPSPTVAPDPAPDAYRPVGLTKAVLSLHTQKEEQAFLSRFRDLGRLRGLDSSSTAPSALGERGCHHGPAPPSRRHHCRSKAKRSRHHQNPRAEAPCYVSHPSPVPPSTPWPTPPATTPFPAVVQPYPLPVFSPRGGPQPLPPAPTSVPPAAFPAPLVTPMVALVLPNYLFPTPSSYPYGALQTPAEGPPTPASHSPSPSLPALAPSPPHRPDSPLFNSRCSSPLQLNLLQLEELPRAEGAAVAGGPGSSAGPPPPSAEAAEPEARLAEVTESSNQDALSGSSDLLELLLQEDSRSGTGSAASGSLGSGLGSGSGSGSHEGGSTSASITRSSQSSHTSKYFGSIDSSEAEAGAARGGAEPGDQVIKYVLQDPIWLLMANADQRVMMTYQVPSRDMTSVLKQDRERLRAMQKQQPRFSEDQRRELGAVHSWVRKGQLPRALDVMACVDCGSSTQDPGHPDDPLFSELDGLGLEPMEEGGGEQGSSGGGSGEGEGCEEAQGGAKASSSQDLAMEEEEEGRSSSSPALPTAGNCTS

No constants are given. Whether binding was seen depends on the method and setting. Binding seen in cells or lysates may run through a third protein. These calls come from enrichment with a bait or labelling near it, and not all partners need be listed.

For the experiment, the target named is T1, CLOCK (human (endogenous in U-2 OS)) (UniProt O15516).
T1 sequence: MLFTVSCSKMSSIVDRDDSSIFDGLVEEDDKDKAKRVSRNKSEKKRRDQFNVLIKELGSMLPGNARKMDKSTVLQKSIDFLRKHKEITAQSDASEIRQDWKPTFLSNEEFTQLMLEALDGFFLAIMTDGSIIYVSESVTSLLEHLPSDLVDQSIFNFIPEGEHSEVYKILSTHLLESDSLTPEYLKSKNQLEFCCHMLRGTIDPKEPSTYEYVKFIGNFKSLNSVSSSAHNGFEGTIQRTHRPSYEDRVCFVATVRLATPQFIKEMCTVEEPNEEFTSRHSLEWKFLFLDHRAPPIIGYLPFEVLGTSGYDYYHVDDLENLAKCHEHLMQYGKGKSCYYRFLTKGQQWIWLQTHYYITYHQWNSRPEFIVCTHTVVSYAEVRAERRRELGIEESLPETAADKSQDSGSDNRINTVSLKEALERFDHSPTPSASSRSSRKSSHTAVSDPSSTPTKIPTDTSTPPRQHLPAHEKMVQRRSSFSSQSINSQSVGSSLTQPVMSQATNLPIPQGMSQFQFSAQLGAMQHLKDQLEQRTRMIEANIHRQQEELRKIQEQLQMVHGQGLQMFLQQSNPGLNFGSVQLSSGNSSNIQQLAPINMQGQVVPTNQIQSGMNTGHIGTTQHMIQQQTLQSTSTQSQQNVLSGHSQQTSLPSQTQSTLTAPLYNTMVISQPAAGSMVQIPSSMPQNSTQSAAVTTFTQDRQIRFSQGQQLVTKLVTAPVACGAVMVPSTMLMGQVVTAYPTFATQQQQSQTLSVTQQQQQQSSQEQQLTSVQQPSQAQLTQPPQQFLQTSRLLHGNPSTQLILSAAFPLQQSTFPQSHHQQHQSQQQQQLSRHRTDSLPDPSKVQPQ
As to the kind of experiment: affinity purification with mass spectrometry; modified ChIP protocol: 1 mg formaldehyde cross-linked protein extracts from unsynchronized U-2 OS cell nuclei, two different rabbit anti-CLOCK antibodies (Abcam, Cell Signaling) against IgG control, agarose beads, on-bead digestion, label-free LC-MS/MS, triplicates.

For “Transportin 1 (TNPO1), endogenous (from UniProt Q92973 1-898)”, the binding result is “binds”.
With BMAL1 (from UniProt O00327 1-626), the binding entry is on record as “binds”.
On to “PER1, endogenous (from UniProt O15534 1-1290)”, for which the binding entry is on record as “binds”.
